# Source: the supplement of paper PMC10849652
# Protein sequences, listed by entry. Tags and fused reporters are not part of them. Lines headed by an entry give the natural chain unless they say otherwise; changes in a name come on top.
# UniProt Q8WXX5: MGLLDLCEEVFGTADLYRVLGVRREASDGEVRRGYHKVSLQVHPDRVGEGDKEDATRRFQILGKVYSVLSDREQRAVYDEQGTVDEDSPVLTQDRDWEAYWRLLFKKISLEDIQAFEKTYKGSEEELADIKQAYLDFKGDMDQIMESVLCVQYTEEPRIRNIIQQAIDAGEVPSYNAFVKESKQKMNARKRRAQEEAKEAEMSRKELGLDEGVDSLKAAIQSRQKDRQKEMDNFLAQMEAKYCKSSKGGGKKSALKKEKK
# UniProt O00429, whole entry, looked up: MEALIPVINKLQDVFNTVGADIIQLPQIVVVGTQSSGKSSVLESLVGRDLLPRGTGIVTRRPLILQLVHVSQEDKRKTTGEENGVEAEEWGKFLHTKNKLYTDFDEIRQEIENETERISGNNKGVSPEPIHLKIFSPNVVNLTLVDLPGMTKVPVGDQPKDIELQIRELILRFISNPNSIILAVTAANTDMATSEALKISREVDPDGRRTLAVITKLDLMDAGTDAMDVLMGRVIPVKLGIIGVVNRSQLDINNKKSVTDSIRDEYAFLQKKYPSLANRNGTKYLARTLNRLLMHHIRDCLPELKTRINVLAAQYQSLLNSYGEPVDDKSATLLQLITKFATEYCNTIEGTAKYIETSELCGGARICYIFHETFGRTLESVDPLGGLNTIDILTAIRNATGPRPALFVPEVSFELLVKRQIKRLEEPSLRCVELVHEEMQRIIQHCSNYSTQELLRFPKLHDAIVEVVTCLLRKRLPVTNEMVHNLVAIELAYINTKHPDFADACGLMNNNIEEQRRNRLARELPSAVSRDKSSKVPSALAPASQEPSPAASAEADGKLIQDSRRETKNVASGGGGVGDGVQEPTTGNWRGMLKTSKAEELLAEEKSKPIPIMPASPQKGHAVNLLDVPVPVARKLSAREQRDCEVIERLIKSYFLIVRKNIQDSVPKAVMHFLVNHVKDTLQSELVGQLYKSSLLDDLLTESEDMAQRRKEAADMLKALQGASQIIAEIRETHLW
# UniProt Q9C005, whole entry, looked up: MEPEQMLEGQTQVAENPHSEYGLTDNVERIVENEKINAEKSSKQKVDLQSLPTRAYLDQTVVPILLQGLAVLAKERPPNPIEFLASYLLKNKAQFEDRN
# UniProt Q16610: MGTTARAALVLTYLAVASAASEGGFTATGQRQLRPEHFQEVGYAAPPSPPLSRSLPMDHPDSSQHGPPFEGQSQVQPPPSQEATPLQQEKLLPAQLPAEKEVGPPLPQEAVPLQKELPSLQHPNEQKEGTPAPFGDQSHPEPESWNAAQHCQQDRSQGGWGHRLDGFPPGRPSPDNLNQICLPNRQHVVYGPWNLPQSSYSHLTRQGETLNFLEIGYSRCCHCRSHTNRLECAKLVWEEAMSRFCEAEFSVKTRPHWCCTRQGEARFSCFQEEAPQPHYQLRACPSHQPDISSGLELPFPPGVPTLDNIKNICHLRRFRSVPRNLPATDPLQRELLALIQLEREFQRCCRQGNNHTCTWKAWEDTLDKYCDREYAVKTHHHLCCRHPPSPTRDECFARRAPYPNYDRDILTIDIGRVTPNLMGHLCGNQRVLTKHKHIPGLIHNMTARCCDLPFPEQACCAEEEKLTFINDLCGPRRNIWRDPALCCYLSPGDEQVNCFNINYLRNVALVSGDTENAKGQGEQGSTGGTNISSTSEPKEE
# UniProt O43237, whole entry, looked up: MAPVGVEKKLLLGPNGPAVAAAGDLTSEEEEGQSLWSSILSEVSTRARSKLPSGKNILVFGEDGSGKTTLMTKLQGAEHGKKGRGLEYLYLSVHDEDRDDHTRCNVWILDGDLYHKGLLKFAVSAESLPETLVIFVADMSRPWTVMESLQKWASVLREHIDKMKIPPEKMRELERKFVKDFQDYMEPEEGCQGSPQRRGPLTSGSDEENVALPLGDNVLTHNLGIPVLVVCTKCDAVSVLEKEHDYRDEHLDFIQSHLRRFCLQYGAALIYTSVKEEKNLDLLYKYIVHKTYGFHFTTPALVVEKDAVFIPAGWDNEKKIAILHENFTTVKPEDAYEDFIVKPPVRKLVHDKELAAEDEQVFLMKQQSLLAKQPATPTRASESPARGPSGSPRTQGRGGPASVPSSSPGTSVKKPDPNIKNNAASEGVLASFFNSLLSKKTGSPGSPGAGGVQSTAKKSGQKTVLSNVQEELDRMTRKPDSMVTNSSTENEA
# UniProt O60869: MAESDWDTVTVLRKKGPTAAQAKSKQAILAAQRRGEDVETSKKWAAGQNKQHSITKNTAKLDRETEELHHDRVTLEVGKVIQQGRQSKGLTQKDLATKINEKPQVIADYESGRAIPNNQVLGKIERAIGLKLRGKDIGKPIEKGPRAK
# UniProt Q96FN9: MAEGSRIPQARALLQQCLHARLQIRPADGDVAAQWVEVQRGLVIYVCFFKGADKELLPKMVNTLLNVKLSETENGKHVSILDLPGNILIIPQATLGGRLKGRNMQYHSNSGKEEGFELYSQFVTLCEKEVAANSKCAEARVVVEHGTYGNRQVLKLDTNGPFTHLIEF
# UniProt Q6V1X1: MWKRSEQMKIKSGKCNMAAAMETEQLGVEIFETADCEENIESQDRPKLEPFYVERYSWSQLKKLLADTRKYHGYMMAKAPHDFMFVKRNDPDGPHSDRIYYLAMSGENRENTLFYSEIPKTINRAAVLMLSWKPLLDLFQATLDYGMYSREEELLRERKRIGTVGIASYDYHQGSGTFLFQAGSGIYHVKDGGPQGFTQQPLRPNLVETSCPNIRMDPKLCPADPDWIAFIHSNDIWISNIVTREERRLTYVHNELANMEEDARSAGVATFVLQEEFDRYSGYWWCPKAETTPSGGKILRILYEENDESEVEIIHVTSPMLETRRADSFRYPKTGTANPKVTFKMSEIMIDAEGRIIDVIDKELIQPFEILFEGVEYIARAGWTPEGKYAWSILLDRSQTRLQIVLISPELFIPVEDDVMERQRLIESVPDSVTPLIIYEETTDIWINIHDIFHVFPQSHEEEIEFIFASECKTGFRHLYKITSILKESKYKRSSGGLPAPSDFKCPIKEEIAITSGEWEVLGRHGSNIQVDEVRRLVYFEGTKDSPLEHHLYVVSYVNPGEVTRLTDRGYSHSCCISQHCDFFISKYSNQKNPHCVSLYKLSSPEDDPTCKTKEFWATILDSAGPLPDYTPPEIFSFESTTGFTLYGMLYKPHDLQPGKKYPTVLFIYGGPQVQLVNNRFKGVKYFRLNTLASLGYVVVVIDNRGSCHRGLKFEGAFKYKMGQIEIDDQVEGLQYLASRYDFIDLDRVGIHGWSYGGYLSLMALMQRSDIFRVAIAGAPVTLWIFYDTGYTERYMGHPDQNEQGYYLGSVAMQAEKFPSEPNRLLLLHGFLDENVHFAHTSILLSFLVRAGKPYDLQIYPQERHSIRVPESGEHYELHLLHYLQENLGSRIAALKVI
# The other results are listed elsewhere or left out.
# Legend:
# Test in all cases: log2 fold change, soluble protein after heating vs DMSO (PISA); higher = thermal stabilisation; K562 cells, 10 uM, 30 min; active = over 0.2 and 3.5 SD of the protein, either way, in both replicates (recomputed)
# saracatinib = compound: CN1CCN(CCOc2cc(OC3CCOCC3)c3c(Nc4c(Cl)ccc5c4OCO5)ncnc3c2)CC1 [saracatinib]
# Procedure, shortened: (§1)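 Quantification of soluble protein used TMTpro 16plex LC-MS/MS, with channel sums equalised. Samples were the supernatant after 21,000xg for 90 min of pooled aliquots from K562 cells (2×10^6 cells/mL) treated with 10 μM compound for 30 min, heated for 3 min over 48°C-58°C, and extracted in PBS with 0.5% NP-40 at 4°C. Values, from duplicates, describe thermal stability against control samples on a log2 fold-change scale.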
# sotrastaurin = compound: CN1CCN(c2nc(C3=C(c4c[nH]c5ccccc45)C(=O)NC3=O)c3ccccc3n2)CC1 [sotrastaurin]
# Procedure, shortened: as §1
# alvocidib = compound: CN1CC[C@H](c2c(O)cc(O)c3c(=O)cc(-c4ccccc4Cl)oc23)[C@H](O)C1 [alvocidib]
# Procedure, shortened: as §1
# Tubastatin A = compound: CN1CCc2c(c3ccccc3n2Cc2ccc(C(=O)NO)cc2)C1 [Tubastatin A]
# Procedure, shortened: as §1
# [1] = compound: CNC(=O)C1=CC=CC=C1NC2=NC(=NC=C2Cl)NC3=C(C=C(C=C3)N4CCOCC4)OC
# Procedure, shortened: as §1
# defactinib = compound: CNC(=O)c1ccc(Nc2ncc(C(F)(F)F)c(NCc3nccnc3N(C)S(C)(=O)=O)n2)cc1 [defactinib]
# Procedure, shortened: as §1
# rucaparib = compound: CNCc1ccc(-c2[nH]c3cc(F)cc4c3c2CCNC4=O)cc1 [rucaparib]
# Procedure, shortened: as §1
# [2] = compound: CNc1nc(-c2ccc3c(N)n[nH]c3c2)cc(N2C[C@@H](C(=O)NC3CCCCC3)CC[C@H]2C)n1
# Procedure, shortened: as §1
# encorafenib = compound: COC(=O)N[C@@H](C)CNc1nccc(-c2cn(C(C)C)nc2-c2cc(Cl)cc(NS(C)(=O)=O)c2F)n1 [encorafenib]
# Procedure, shortened: as §1
# [3] = compound: COC(=O)[C@H](CCSC)NC(=O)C1=C(C=C(C=C1)NC[C@H](CS)N)C2=CC=CC=C2
# Procedure, shortened: as §1
# [4] = compound: COC1=CC=C(C=C1)CN2C=CC3=C2C=C(C=C3)C(=O)NO
# Procedure, shortened: as §1
# filanesib = compound: CON(C)C(=O)N1N=C(c2cc(F)ccc2F)S[C@@]1(CCCN)c1ccccc1 [filanesib]
# Procedure, shortened: as §1
# zotarolimus = compound: CO[C@H]1C[C@@H]2CC[C@@H](C)[C@@](O)(O2)C(=O)C(=O)N2CCCC[C@H]2C(=O)O[C@H]([C@H](C)C[C@@H]2CC[C@H](n3cnnn3)[C@H](OC)C2)CC(=O)[C@H](C)/C=C(\C)[C@@H](O)[C@@H](OC)C(=O)[C@H](C)C[C@H](C)/C=C/C=C/C=C/1C [zotarolimus]
# Procedure, shortened: as §1
# idasanutlin = compound: COc1cc(C(=O)O)ccc1NC(=O)[C@@H]1N[C@@H](CC(C)(C)C)[C@](C#N)(c2ccc(Cl)cc2F)[C@H]1c1cccc(Cl)c1F [idasanutlin]
# Procedure, shortened: as §1
# alisertib = compound: COc1cc(Nc2ncc3c(n2)-c2ccc(Cl)cc2C(c2c(F)cccc2OC)=NC3)ccc1C(=O)O [alisertib]
# Procedure, shortened: as §1
# [5] = compound: COc1cc2nc(-c3cc(F)ccc3O)nc(N[C@@H]3CNC[C@H]3C(C)(C)O)c2cc1OC
# Procedure, shortened: as §1
# gefitinib = compound: COc1cc2ncnc(Nc3ccc(F)c(Cl)c3)c2cc1OCCCN1CCOCC1 [gefitinib]
# Procedure, shortened: as §1
# [6] = compound: COc1cccc2cc(-c3nc([C@H]4CC[C@H](C(=O)O)CC4)n4ncnc(N)c34)[nH]c12
# Procedure, shortened: as §1
# lapatinib = compound: CS(=O)(=O)CCNCc1ccc(-c2ccc3ncnc(Nc4ccc(OCc5cccc(F)c5)c(Cl)c4)c3c2)o1 [lapatinib]
# Procedure, shortened: as §1
# pictilisib = compound: CS(=O)(=O)N1CCN(Cc2cc3nc(-c4cccc5[nH]ncc45)nc(N4CCOCC4)c3s2)CC1 [pictilisib]
# Procedure, shortened: as §1
Target,log2 fold change (saracatinib),log2 fold change (sotrastaurin),log2 fold change (alvocidib),log2 fold change (Tubastatin A),log2 fold change [1],log2 fold change (defactinib),log2 fold change (rucaparib),log2 fold change [2],log2 fold change (encorafenib),log2 fold change [3],log2 fold change [4],log2 fold change (filanesib),log2 fold change (zotarolimus),log2 fold change (idasanutlin),log2 fold change (alisertib),log2 fold change [5],log2 fold change (gefitinib),log2 fold change [6],log2 fold change (lapatinib),log2 fold change (pictilisib)
DNAJC9 (UniProt Q8WXX5),inactive: -0.033,inactive: -0.018,inactive: -0.042,inactive: 0,inactive: 0,inactive: -0.061,inactive: -0.03,inactive: -0.046,inactive: 0.011,inactive: 0.014,inactive: 0.001,inactive: -0.029,inactive: 0,inactive: -0.014,inactive: -0.031,inactive: 0.049,inactive: 0.01,inactive: 0,inactive: -0.047,inactive: 0.014
DNM1L isoform 2 (UniProt O00429),inactive: 0.235,inactive: 0.089,inactive: -0.112,inactive: -0.042,inactive: -0.009,inactive: -0.007,inactive: -0.029,inactive: -0.226,inactive: -0.023,inactive: -0.137,inactive: -0.035,inactive: -0.07,inactive: -0.066,inactive: -0.078,inactive: -0.115,inactive: -0.073,inactive: 0.092,inactive: 0.085,inactive: -0.142,inactive: -0.221
DPY30 (UniProt Q9C005),inactive: -0.196,inactive: 0.199,inactive: -0.071,inactive: 0.063,inactive: -0.021,inactive: -0.259,inactive: -0.061,inactive: 0.011,inactive: -0.04,inactive: 0.144,inactive: 0.532,inactive: 0.326,inactive: 0.087,inactive: 0.141,inactive: -0.409,inactive: -0.241,inactive: 0.027,inactive: 0.07,inactive: -0.027,inactive: -0.038
ECM1 isoform 4 (UniProt Q16610),inactive: 0.05,inactive: 0.012,inactive: 0.004,inactive: -0.007,inactive: -0.017,inactive: -0.003,inactive: -0.003,inactive: -0.097,inactive: -0.032,inactive: 0.054,inactive: -0.049,inactive: -0.005,inactive: -0.093,inactive: 0.019,inactive: 0.174,inactive: -0.019,inactive: 0.037,inactive: 0.011,inactive: -0.009,inactive: -0.036
DYNC1LI2 (UniProt O43237),inactive: -0.001,inactive: -0.079,,inactive: 0.033,inactive: 0.028,inactive: -0.039,inactive: 0.42,inactive: 0.003,inactive: 0.212,inactive: 0.016,inactive: -0.19,inactive: 0.384,inactive: 0.005,inactive: 0.092,inactive: -0.053,inactive: 0.101,inactive: -0.099,inactive: -0.119,inactive: 0.116,inactive: -0.223
EDF1 (UniProt O60869),inactive: 0.028,inactive: 0.048,inactive: -0.024,inactive: 0.016,inactive: -0.006,inactive: -0.021,inactive: -0.024,inactive: -0.028,inactive: -0.013,inactive: 0.037,inactive: 0.041,inactive: -0.022,inactive: -0.056,inactive: -0.018,inactive: -0.02,inactive: 0.028,inactive: -0.003,inactive: 0.029,inactive: -0.08,inactive: 0.002
DTD2 (UniProt Q96FN9),inactive: 0.026,inactive: -0.01,inactive: -0.078,inactive: -0.003,inactive: -0.028,inactive: -0.033,,inactive: 0.091,,inactive: -0.021,inactive: 0.038,inactive: 0.027,inactive: 0.153,inactive: -0.018,,inactive: -0.207,inactive: -0.155,,inactive: -0.067,inactive: -0.093
DOCK1 (UniProt Q14185),inactive: -0.059,inactive: -0.109,inactive: 0.053,,inactive: -0.071,inactive: -0.022,inactive: -0.228,inactive: -0.104,inactive: 0.109,inactive: 0.053,,inactive: -0.081,inactive: -0.24,inactive: 0.094,,inactive: 0.411,,,inactive: -0.206,
DPP8 (UniProt Q6V1X1),inactive: -0.002,inactive: 0.175,,inactive: 0.003,inactive: -0.044,inactive: 0.082,active: -0.572,inactive: -0.021,inactive: 0.026,inactive: 0.058,inactive: -0.089,inactive: 0.048,inactive: 0.028,inactive: -0.112,inactive: -0.01,inactive: 0.041,inactive: 0.042,inactive: 0.037,inactive: -0.077,inactive: 0.022
